The values that follow are results of earlier work, collected in PMC9124651, “High-performance thin-layer chromatography in combination with an acetylcholinesterase-inhibition bioassay with pre-oxidation of organothiophosphates to determine neurotoxic effects in storm, waste, and surface water” (Analytical and Bioanalytical Chemistry, 2022).

In this series the test system is esterase. To be noted: apple juice and tap water samples; HPTLC multi-enzyme inhibition assay with prior oxidation; cited from earlier work.

Molecules are shown by their SMILES. Some compounds share one range, which may span the group rather than tell each member.

In the case of `CCOP(=S)(OCC)Oc1ccc([N+](=O)[O-])cc1` [Parathion, parathion], the Recoveries was 91–106%.
As for `CCOP(=O)(OCC)Oc1ccc([N+](=O)[O-])cc1` [Paraoxon, paraoxon], the Recoveries is 91–106%.
Take `CCOP(=S)(OCC)Oc1nc(Cl)c(Cl)cc1Cl` [Chlorpyrifos, chlorpyrifos]: the Recoveries is listed as 91–106%.
